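Plate-reader measure of the Venus reporter marking one vaccinia stage in infected cells (the cell line is not named here); read time unknown.
The test concentration is not given here.
Percent change in Venus reporter signal; lower (more negative) values mean stronger inhibition of that viral stage.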

Values are in %.
The controls that fix the scale are not given here.
Common to all entries: measured here: Venus reporter, other viral stage.
This is a side read-out of the assay, for part of the compounds, not drawn at random.

SMILES: O=C(C[C@@H]1CC[C@H](NC(=O)Nc2ccc(C(F)(F)F)cc2)[C@H](CO)O1)NCc1cc(F)cc(F)c1
activity change (Venus) (%): -22.54

SMILES: C[C@@H]1CN([C@H](C)CO)C(=O)c2cc(NS(=O)(=O)c3ccc(Cl)cc3)ccc2O[C@@H]1CN(C)Cc1ccccc1
activity change (Venus) (%): -26.92

SMILES: CCCN(C)C[C@H]1Oc2cc(C#Cc3ccc(OC)cc3)ccc2S(=O)(=O)N([C@@H](C)CO)C[C@H]1C
activity change (Venus) (%): -25.85

SMILES: CN(C)CC(=O)N1CCCCN2[C@@H](CO)[C@H](c3ccc(/C=C/c4ccccc4)cc3)[C@@H]2C1
activity change (Venus) (%): -82.99

SMILES: C/C=C/c1ccc(C2[C@@H]3CN(Cc4cc(OC)cc(OC)c4)C[C@H]2N3)cc1 (some centres unmarked)
activity change (Venus) (%): -28.13

SMILES: Cc1ccc(S(=O)(=O)N2C[C@H](O)COC[C@H]3O[C@H](CC(=O)NCc4ccc(Cl)c(Cl)c4)CC[C@@H]32)cc1
activity change (Venus) (%): -50.49

SMILES: C[C@H](CO)N1C[C@H](C)[C@H](CN(C)Cc2ccncc2)Oc2cc(C3=CCCCC3)ccc2S1(=O)=O
activity change (Venus) (%): -26.44

SMILES: COc1cccc(NC(=O)N(C)C[C@H]2OCc3ccccc3-c3c(n(C)c4ccccc34)C(=O)N([C@@H](C)CO)C[C@H]2C)c1
activity change (Venus) (%): -45.72

SMILES: CCCNC(=O)C[C@H]1CC[C@@H]2[C@@H](COc3ccc(NC(=O)CCC)cc3C(=O)N2C)O1
activity change (Venus) (%): 5.947

SMILES: C[C@@H]1CN([C@H](C)CO)C(=O)c2cc(NC(=O)C3CCCCC3)ccc2O[C@@H](C)CCCCO[C@@H]1CN(C)Cc1ccc2c(c1)OCO2
activity change (Venus) (%): -49.14

SMILES: C[C@@H]1CN([C@@H](C)CO)C(=O)c2cccc(NC(=O)Nc3ccccc3)c2O[C@@H]1CN(C)C(=O)NC1CCCCC1
activity change (Venus) (%): -39.19

SMILES: C[C@H]1CN([C@@H](C)CO)C(=O)c2cc(NC(=O)Nc3ccc(C(F)(F)F)cc3)ccc2O[C@H]1CN(C)Cc1ccc(Cl)c(Cl)c1
activity change (Venus) (%): -37.41

SMILES: O=C(C[C@@H]1C[C@H]2c3cc(NC(=O)Nc4ccc(C(F)(F)F)cc4)ccc3O[C@H]2[C@H](CO)O1)NC1CCCCC1
activity change (Venus) (%): -63.26

SMILES: CC(C)CC#Cc1ccc2c(c1)O[C@H](CN(C)C(=O)c1cccc(F)c1)[C@@H](C)CN([C@@H](C)CO)S2(=O)=O
activity change (Venus) (%): -56.04

SMILES: C[C@@H]1CN([C@H](C)CO)C(=O)Cc2cc(NS(=O)(=O)c3cccs3)ccc2O[C@H]1CN(C)Cc1ccc(C(F)(F)F)cc1
activity change (Venus) (%): -37.79

SMILES: C[C@@H]1CN([C@H](C)CO)S(=O)(=O)c2ccc(C#Cc3ccccc3F)cc2O[C@@H]1CN(C)C(=O)Cc1ccncc1
activity change (Venus) (%): -25.88

SMILES: C[C@@H]1CN([C@H](C)CO)S(=O)(=O)c2ccc(C#CC(C)(C)O)cc2O[C@@H]1CN(C)Cc1ccc(F)cc1
activity change (Venus) (%): -40.91

SMILES: C[C@@H]1CN([C@@H](C)CO)C(=O)Cc2cc(N(C)C)ccc2O[C@@H]1CN(C)Cc1ccc(Cl)c(Cl)c1
activity change (Venus) (%): -51.47

SMILES: Cc1ccccc1-c1ccc([C@@H]2[C@H]3CN(C(=O)Nc4ccc(F)cc4)CCCCN3[C@H]2CO)cc1
activity change (Venus) (%): -40.02

SMILES: C[C@@H]1CN([C@@H](C)CO)C(=O)c2c(c3ccccc3n2C)-c2ccccc2CO[C@H]1CN(C)C(=O)Oc1ccccc1
activity change (Venus) (%): -43.67

SMILES: C[C@@H]1CN([C@H](C)CO)S(=O)(=O)c2ccc(C#Cc3ccccc3)cc2O[C@H]1CN(C)S(=O)(=O)c1cn(C)cn1
activity change (Venus) (%): -35.42

SMILES: C[C@H](CO)N1C[C@H](C)[C@@H](CN(C)C(=O)Cc2ccccc2)OCc2ccccc2-c2c(n(C)c3ccccc23)C1=O
activity change (Venus) (%): -52.07

SMILES: Cc1ccc(S(=O)(=O)Nc2ccc3c(c2)CC(=O)N([C@H](C)CO)C[C@H](C)[C@@H](CN(C)Cc2ccc(-c4ccccc4)cc2)O3)cc1
activity change (Venus) (%): -37.25

SMILES: C[C@H](CO)N1C[C@H](C)[C@@H](CN(C)C(=O)C2CCCCC2)Oc2cc(C3=CCCCC3)ccc2S1(=O)=O
activity change (Venus) (%): -38.99

SMILES: C[C@H]1CN([C@@H](C)CO)C(=O)c2cc(-c3cccc(F)c3)cnc2O[C@@H]1CN(C)C(=O)C1CCCCC1
activity change (Venus) (%): -24.06

SMILES: O=C(c1cccc(F)c1)N1CCCCN2[C@@H](CO)[C@@H](c3ccc(/C=C/c4ccccc4)cc3)[C@@H]2C1
activity change (Venus) (%): -74.85

SMILES: COc1cccc(-c2cnc3c(c2)C(=O)N([C@@H](C)CO)C[C@@H](C)[C@H](CN(C)Cc2ccc(F)cc2)O3)c1
activity change (Venus) (%): -46.97

SMILES: CC(C)CC#Cc1ccc2c(c1)O[C@H](CN(C)CC1CC1)[C@H](C)CN([C@H](C)CO)S2(=O)=O
activity change (Venus) (%): -40.65

SMILES: OC[C@@H]1[C@@H](c2ccc(C#CC3CC3)cc2)[C@@H]2CN(CCC(F)(F)F)CCCCN12
activity change (Venus) (%): -32.77

SMILES: COc1ccc(NC(=O)N(C)C[C@@H]2Oc3cc(C#CCC(C)C)ccc3S(=O)(=O)N([C@@H](C)CO)C[C@@H]2C)cc1
activity change (Venus) (%): -74.09

SMILES: Cc1ccc(-c2ccc([C@H]3[C@H]4CN(C(=O)NC(C)C)CC(=O)N4[C@H]3CO)cc2)cc1
activity change (Venus) (%): -18.66

SMILES: C[C@@H]1CN([C@H](C)CO)C(=O)c2cc(NS(=O)(=O)c3cccs3)ccc2O[C@@H](C)CCCCO[C@@H]1CN(C)Cc1ccc(Cl)c(Cl)c1
activity change (Venus) (%): -62.16

SMILES: COc1ccc(C#Cc2cnc3c(c2)C(=O)N([C@H](C)CO)C[C@H](C)[C@H](CN(C)Cc2cccc(C)c2)O3)cc1OC
activity change (Venus) (%): -32.26

SMILES: CCCNC(=O)Nc1ccc2c(c1)OC[C@H](C)N(Cc1ccccc1)C[C@@H](C)[C@H](OC)CN(C)C2=O
activity change (Venus) (%): -46.66

The last 3 entries again:

| SMILES | activity change (Venus) (%) |
|---|---|
| `C[C@@H]1CN([C@H](C)CO)C(=O)c2cc(NS(=O)(=O)c3cccs3)ccc2O[C@@H](C)CCCCO[C@@H]1CN(C)Cc1ccc(Cl)c(Cl)c1` | -62.16 |
| `COc1ccc(C#Cc2cnc3c(c2)C(=O)N([C@H](C)CO)C[C@H](C)[C@H](CN(C)Cc2cccc(C)c2)O3)cc1OC` | -32.26 |
| `CCCNC(=O)Nc1ccc2c(c1)OC[C@H](C)N(Cc1ccccc1)C[C@@H](C)[C@H](OC)CN(C)C2=O` | -46.66 |

The results are deposited in PubChem (AID1053133; Broad Institute, 2014).